Measurements reported in PubChem BioAssay AID743454 (Peter MacCallum Cancer Centre, 2014)

Assay: 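Search for knock-downs that restore vorinostat killing in resistant colon cancer cells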 (primary screen)
Cell system: human HCT116-VR colon cancer cells, selected for vorinostat resistance
Reagents: siRNA pool against human genes, 40 nM siRNA pool
Timing: vorinostat for 24 h, read-out about 72 h after transfection
Treatment: vorinostat at 2.5 µM final
Measured: 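Cell viability by CellTiter-Fluor and caspase 3/7 activity by luminescence, each scaled to mock wells per plate, duplicates averaged, then robust z-scored over all plates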
Direction: viability robust z-score: higher = more viable cells than screen typical; caspase robust z-score: higher = more caspase 3/7 activity than screen typical
Call rule: 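a knock-down is a hit when classed RV1 or RV2 for lowered viability, or CA1 or CA2 for caspase activation; those lethal without drug were dropped; hits were retested singly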
Here is an unselected part of about 18,000 reagents tested. 450 of all reagents (2.5%) were called active. 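Single biological run; no consistent viability z cut-off exists, so the class columns, not z-scores, define the calls.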

MYL3
- viability hit class: no change
- caspase hit class: no change
- viability robust z-score: -1.09
- caspase robust z-score: -0.17
- activity call: inactive

SUPT16H
- viability hit class: no change
- caspase hit class: no change
- viability robust z-score: 0.92
- caspase robust z-score: -0.45
- activity call: inactive

CALR
- viability hit class: no change
- caspase hit class: no change
- viability robust z-score: -0.31
- caspase robust z-score: -0.76
- activity call: inactive

NT5C3A
- viability hit class: no change
- caspase hit class: no change
- viability robust z-score: 0.76
- caspase robust z-score: -0.96
- activity call: inactive

NTF4
- viability hit class: no change
- caspase hit class: no change
- viability robust z-score: 0.16
- caspase robust z-score: -0.12
- activity call: inactive

RFT1
- viability hit class: no change
- caspase hit class: no change
- viability robust z-score: -3.95
- caspase robust z-score: 3.46
- activity call: inactive

CCDC170
- viability hit class: no change
- caspase hit class: no change
- viability robust z-score: 0.31
- caspase robust z-score: 0.05
- activity call: inactive

DCUN1D2
- viability hit class: no change
- caspase hit class: CA1 (caspase activation)
- viability robust z-score: -0.36
- caspase robust z-score: 8.32
- activity call: active

VWA7
- viability hit class: no change
- caspase hit class: no change
- viability robust z-score: 0.91
- caspase robust z-score: -0.18
- activity call: inactive

BAGE2
- viability hit class: no change
- caspase hit class: no change
- viability robust z-score: -0.68
- caspase robust z-score: 3.46
- activity call: inactive

ALG10B
- viability hit class: no change
- caspase hit class: no change
- viability robust z-score: 0.5
- caspase robust z-score: 0.3
- activity call: inactive

CPTP
- viability hit class: no change
- caspase hit class: no change
- viability robust z-score: -0.43
- caspase robust z-score: 1.88
- activity call: inactive

PDCD10
- viability hit class: no change
- caspase hit class: no change
- viability robust z-score: 1.4
- caspase robust z-score: -0.05
- activity call: inactive

LAMB2
- viability hit class: no change
- caspase hit class: no change
- viability robust z-score: -1.88
- caspase robust z-score: -0.4
- activity call: inactive

2 entries already listed, sorted by “caspase robust z-score”, high to low:
PDCD10
- viability hit class: no change
- caspase hit class: no change
- viability robust z-score: 1.4
- caspase robust z-score: -0.05
- activity call: inactive

LAMB2
- viability hit class: no change
- caspase hit class: no change
- viability robust z-score: -1.88
- caspase robust z-score: -0.4
- activity call: inactive

The list goes on.
IFIT2
- viability hit class: no change
- caspase hit class: no change
- viability robust z-score: 0.46
- caspase robust z-score: 0.62
- activity call: inactive

BTNL3
- viability hit class: no change
- caspase hit class: no change
- viability robust z-score: -0.63
- caspase robust z-score: -0.13
- activity call: inactive

MAPK4
- viability hit class: no change
- caspase hit class: no change
- viability robust z-score: -0.72
- caspase robust z-score: 2.35
- activity call: inactive

ACTL6A
- viability hit class: no change
- caspase hit class: no change
- viability robust z-score: 0.17
- caspase robust z-score: 0.4
- activity call: inactive

LINC00471
- viability hit class: no change
- caspase hit class: no change
- viability robust z-score: 1.46
- caspase robust z-score: -0.55
- activity call: inactive

KL
- viability hit class: no change
- caspase hit class: no change
- viability robust z-score: 0.57
- caspase robust z-score: -0.04
- activity call: inactive

RAB24
- viability hit class: no change
- caspase hit class: no change
- viability robust z-score: 0.84
- caspase robust z-score: 0.57
- activity call: inactive
